Measurements from publication PMC11602438.
No constants are given. Whether binding was seen depends on the method and setting. Some results given as binding are weak or reduced against the parent protein; the word gives no strength.

Chains of the proteins cited; added tags and fusions are not shown.
UniProt O94903: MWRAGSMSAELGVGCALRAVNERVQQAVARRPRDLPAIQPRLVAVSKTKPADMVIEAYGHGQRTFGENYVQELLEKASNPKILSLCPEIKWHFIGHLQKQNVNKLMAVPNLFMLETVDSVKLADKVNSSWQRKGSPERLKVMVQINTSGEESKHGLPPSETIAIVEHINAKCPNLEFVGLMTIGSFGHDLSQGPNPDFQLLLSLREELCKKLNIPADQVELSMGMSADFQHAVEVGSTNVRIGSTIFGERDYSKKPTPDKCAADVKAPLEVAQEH

Target: human PLP-BP (PROSC), wild type (human) (UniProt O94903)
Assay: SEC; purified recombinant PROSC (Figure S4); conditions not told for PROSC; both purified

For “human PLP-BP (PROSC), wild type (from UniProt O94903 1-275)”, the binding was “binds weakly”.
